No constants are given. Whether binding was seen depends on the method and setting. In cells and extracts the contact can be indirect. Some binding calls cover weakened binding; strength is not graded here. For part of these data: Tags and fused reporters may be left off the sequences shown.
Experiments:
Assay in all cases: co-IP; HeLa extracts in Buffer H (sonicated, 15,000 x g); 2 hr at 4°C with A/G-agarose beads pre-linked with antibody; washed with coIP-washing buffer; Western blot; cells left non-treated, treated with 100 ng/mL nocodazole for 16 hr, or released from a thymidine block
[1] = target: T1, GFP-HOOK3 S238A (human) (UniProt Q86VS8)
T1 sequence: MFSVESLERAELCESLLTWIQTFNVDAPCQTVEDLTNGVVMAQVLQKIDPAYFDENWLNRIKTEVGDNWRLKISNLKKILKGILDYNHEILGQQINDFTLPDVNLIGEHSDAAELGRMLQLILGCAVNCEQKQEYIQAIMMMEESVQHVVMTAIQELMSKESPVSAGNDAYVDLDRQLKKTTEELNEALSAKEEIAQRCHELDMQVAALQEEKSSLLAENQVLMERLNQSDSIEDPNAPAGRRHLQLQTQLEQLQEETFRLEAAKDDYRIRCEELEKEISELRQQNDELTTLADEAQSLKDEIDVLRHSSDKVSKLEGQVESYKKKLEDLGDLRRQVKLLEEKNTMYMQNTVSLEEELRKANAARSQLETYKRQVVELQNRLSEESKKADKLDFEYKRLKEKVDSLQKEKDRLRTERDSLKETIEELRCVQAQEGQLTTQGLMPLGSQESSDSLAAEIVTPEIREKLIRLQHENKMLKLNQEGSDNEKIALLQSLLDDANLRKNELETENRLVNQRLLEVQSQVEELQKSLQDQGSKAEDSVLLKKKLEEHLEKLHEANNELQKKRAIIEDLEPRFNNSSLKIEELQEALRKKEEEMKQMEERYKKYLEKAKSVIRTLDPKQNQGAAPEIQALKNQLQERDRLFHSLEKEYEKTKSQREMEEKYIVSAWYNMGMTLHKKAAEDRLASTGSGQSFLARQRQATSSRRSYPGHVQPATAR

[2] = target: T2, HOOK3 (endogenous) (human (endogenous in HeLa)) (UniProt Q86VS8)
T2 sequence: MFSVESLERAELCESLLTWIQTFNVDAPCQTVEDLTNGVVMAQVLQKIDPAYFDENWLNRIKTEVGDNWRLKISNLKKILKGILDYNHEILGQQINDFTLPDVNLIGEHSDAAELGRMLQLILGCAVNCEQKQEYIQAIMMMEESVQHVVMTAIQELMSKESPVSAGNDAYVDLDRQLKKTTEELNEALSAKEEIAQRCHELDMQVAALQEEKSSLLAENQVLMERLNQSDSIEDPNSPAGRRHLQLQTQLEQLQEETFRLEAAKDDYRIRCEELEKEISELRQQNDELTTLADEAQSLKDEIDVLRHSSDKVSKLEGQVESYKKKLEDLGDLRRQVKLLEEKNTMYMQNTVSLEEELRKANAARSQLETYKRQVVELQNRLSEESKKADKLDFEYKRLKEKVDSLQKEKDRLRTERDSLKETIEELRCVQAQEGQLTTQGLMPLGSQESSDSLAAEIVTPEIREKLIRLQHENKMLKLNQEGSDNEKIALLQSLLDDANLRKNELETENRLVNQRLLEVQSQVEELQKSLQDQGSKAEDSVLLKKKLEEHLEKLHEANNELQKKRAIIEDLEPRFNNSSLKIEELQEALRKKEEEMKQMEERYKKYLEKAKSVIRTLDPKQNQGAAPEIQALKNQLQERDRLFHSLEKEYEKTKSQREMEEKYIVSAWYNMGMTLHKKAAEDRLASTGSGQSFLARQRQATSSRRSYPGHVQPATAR

[3] = target: T3, GFP-HOOK3 2SE (human) (UniProt Q86VS8)
T3 sequence: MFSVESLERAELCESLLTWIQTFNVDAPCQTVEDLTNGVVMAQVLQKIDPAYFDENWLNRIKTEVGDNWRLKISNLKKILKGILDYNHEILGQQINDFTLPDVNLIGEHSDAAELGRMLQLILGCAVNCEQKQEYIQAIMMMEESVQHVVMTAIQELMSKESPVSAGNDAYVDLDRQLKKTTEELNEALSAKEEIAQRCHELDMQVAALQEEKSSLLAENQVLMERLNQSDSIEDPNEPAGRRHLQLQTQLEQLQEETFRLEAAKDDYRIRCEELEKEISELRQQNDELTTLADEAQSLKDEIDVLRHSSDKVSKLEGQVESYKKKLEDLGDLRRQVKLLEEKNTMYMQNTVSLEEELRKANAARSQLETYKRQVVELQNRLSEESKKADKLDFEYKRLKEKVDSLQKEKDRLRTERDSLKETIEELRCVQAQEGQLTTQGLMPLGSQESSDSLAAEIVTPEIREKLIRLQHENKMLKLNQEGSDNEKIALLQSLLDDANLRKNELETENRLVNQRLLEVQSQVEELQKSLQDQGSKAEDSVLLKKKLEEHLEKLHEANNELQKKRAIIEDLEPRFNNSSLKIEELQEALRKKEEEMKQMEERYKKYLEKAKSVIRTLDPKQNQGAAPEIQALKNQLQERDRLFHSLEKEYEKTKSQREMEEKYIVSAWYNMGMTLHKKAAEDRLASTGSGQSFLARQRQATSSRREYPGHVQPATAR

binding [1]: binds
binding [2]: binds
binding [3]: binds
B1: AuroraA (endogenous) (enzyme, UniProt O14965 1-403)
chain: MDRSKENCISGPVKATAPVGGPKRVLVTQQFPCQNPLPVNSGQAQRVLCPSNSSQRIPLQAQKLVSSHKPVQNQKQKQLQATSVPHPVSRPLNNTQKSKQPLPSAPENNPEEELASKQKNEESKKRQWALEDFEIGRPLGKGKFGNVYLAREKQSKFILALKVLFKAQLEKAGVEHQLRREVEIQSHLRHPNILRLYGYFHDATRVYLILEYAPLGTVYRELQKLSKFDEQRTATYITELANALSYCHSKRVIHRDIKPENLLLGSAGELKIADFGWSVHAPSSRRTTLCGTLDYLPPEMIEGRMHDEKVDLWSLGVLCYEFLVGKPPFEANTYQETYKRISRVEFTFPDFVTEGARDLISRLLKHNPSQRPMLREVLEHPWITANSSKPSNCQNKESASKQS

From publication PMC8215223
